# Screen size: about 580,000 compounds; about 6,100 (1.1%) were called active. The shares of active, inactive and inconclusive entries below differ from those in the screen. Calls come from the whole dose curve; as a rule, active = well fitted inhibition curve with a large enough effect; inconclusive = small, poorly fitted or top-dose-only effect, or another doubt; inactive = no such curve, though single readings can be large or run the other way. Where the call is inconclusive, the potency comes from a doubtful curve fit.
# Sequences of proteins named here, by UniProt entry; tags and fusion partners are left off. A change or cut given only in a name is not applied to a line headed by its entry.
# UniProt P18054: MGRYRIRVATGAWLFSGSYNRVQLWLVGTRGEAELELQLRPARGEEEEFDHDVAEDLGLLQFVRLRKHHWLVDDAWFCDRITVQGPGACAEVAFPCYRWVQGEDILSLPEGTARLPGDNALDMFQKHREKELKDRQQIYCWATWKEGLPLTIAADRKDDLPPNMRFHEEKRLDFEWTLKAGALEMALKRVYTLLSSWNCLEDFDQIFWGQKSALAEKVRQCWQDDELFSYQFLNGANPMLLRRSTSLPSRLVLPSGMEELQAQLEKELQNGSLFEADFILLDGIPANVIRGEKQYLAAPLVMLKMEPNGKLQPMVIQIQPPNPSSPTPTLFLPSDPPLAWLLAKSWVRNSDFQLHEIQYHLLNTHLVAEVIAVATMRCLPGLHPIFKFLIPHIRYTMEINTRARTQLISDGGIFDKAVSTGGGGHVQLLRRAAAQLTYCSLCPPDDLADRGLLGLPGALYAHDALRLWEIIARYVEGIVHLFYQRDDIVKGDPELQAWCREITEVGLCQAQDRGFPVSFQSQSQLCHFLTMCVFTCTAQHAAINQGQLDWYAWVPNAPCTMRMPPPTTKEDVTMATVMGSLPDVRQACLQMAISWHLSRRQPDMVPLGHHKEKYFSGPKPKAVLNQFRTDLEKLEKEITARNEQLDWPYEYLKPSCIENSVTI
# Target: Polyunsaturated fatty acid lipoxygenase ALOX12 (Homo sapiens) (UniProt P18054)
# Assay: Primary qHTS assay for inhibitors of human arachidonate 12S-lipoxygenase (ALOX12): Round 2
# Details: purified 12hLO, xylenol orange hydroperoxide absorbance; activity change, negative = inhibition: at 108 µM (top of the series) unless noted
# Method in brief: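 Purified human 12hLO at 150 nM in 25 mM Hepes, 0.01% Triton X-100, pH 7.0, preincubated 15 min at room temperature with compound. Reaction started with 40 uM arachidonic acid, 30 min at room temperature. Hydroperoxide measured by Fe-xylenol orange, 573/405 nm absorbance ratio.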
# % is set by controls: 0 for no effect and ±100 for the full control effect; potency is the fitted concentration of half-maximal effect.
Structure (SMILES),Potency,"activity change, negative = inhibition"
CN1CCCN(S(=O)(=O)c2ccccc2)c2nc3ccccc3nc21,"inconclusive: 4.47 µM [inhibitor, full curve]",–
OC(c1ccc(F)c(F)c1)c1nc(-c2cccs2)cs1 (stereo unspecified),"inconclusive: 70.8 µM [inhibitor, single point]",–
Cc1[nH]c2ccccc2c1SCc1n[nH]c(=S)n1C,"inconclusive: 39.8 µM [inhibitor, partial curve, poor fit]",–
CCOc1cc(OCC)cc(C(=O)Nc2ccc3oc(-c4ccc(OC)c(OC)c4)nc3c2)c1,–,inactive: 25.2%
COc1ccccc1/C=C/C(=O)NC(=S)NCC1CCCO1 (stereo unspecified),active: 39.8 µM,–
O=C(NCCC(c1ccccc1)c1ccccc1)c1n[nH]c(=O)c2ccccc12,"inconclusive: 89.1 µM [inhibitor, single point]",–
C=CCc1ccc(OCC(O)CN2CCN(c3ccccc3)CC2)c(OC)c1 (stereo unspecified),"inconclusive: 15.8 µM [inhibitor, partial curve, poor fit]",–
CS(=O)(=O)c1ccccc1C(=O)N1CCN(S(=O)(=O)c2ccc(C3CCCCC3)cc2)CC1,–,inactive: -6.56%
O=C(Nc1cccc(Cl)c1)C1=NO[C@@H]2CN(c3ccccn3)C[C@H]12,–,inactive: 1.83% [at 176 µM]
Cc1cccc2[nH]c(C(=O)OCC(=O)Nc3ccccc3)cc12,"inconclusive: 100 µM [inhibitor, partial curve, poor fit]",–
CCOc1cccc(/C(O)=C2/C(=O)C(=O)N(CCOC)C2c2ccco2)c1 (stereo unspecified),"inconclusive: 15.8 µM [inhibitor, partial curve, poor fit]",–
CCCCn1c(N)c(N(CCOC)C(=O)CC2CCCCC2)c(=O)[nH]c1=O,"inconclusive: 3.55 µM [inhibitor, full curve, poor fit]",–
CCC1CCCCN1CC(=O)c1c(C)[nH]c2cc(C)ccc12 (stereo unspecified),"inconclusive: 35.5 µM [inhibitor, partial curve, poor fit]",–
CSc1cccc(NC(=S)NCCSc2ccc(Cl)cc2)c1,active: 35.5 µM,–
Cc1nn(-c2ccc(C(C)C)cc2)c(C)c1[C@@H]1C=C[C@@H](NCc2ccc(F)cc2)C1,"inconclusive: 56.2 µM [inhibitor, full curve]",–
C/C(=N\NC(N)=S)c1ccc(-n2ccnc2)cc1,–,inactive: 19.7%
CCOC(=O)C1CCN(CCC(=O)Nc2c(C(=O)OC)[nH]c3ccc(F)cc23)CC1,"inconclusive: 141 µM [inhibitor, single point]",–
Cc1ccc(SC[C@H](Cc2ccccc2)N2CCN(CC(C)C)CCC2=O)cc1,"inconclusive: 89.1 µM [inhibitor, partial curve, poor fit]",–
O=C(c1cc(C2CC2)on1)N1CCCC(N2CCN(c3cccc(C(F)(F)F)c3)CC2)C1 (stereo unspecified),–,inactive: 0%
Cn1cccc1Cc1nnc(SCC(=O)Nc2ccc(F)cc2F)n1-c1ccc(F)cc1,"inconclusive: 126 µM [inhibitor, partial curve, poor fit]",–
COc1cc(OC)c(OC)cc1CN(C)CCc1ccccn1,"inconclusive: 0.126 µM [inhibitor, full curve, poor fit]",–

# Some of the entries so far, with tabs.
Structure (SMILES)	Potency	activity change, negative = inhibition
O=C(Nc1cccc(Cl)c1)C1=NO[C@@H]2CN(c3ccccn3)C[C@H]12	–	inactive: 1.83% [at 176 µM]
Cc1cccc2[nH]c(C(=O)OCC(=O)Nc3ccccc3)cc12	inconclusive: 100 µM [inhibitor, partial curve, poor fit]	–
CCOc1cccc(/C(O)=C2/C(=O)C(=O)N(CCOC)C2c2ccco2)c1 (stereo unspecified)	inconclusive: 15.8 µM [inhibitor, partial curve, poor fit]	–
CCCCn1c(N)c(N(CCOC)C(=O)CC2CCCCC2)c(=O)[nH]c1=O	inconclusive: 3.55 µM [inhibitor, full curve, poor fit]	–
CCC1CCCCN1CC(=O)c1c(C)[nH]c2cc(C)ccc12 (stereo unspecified)	inconclusive: 35.5 µM [inhibitor, partial curve, poor fit]	–
CSc1cccc(NC(=S)NCCSc2ccc(Cl)cc2)c1	active: 35.5 µM	–
Cc1nn(-c2ccc(C(C)C)cc2)c(C)c1[C@@H]1C=C[C@@H](NCc2ccc(F)cc2)C1	inconclusive: 56.2 µM [inhibitor, full curve]	–
C/C(=N\NC(N)=S)c1ccc(-n2ccnc2)cc1	–	inactive: 19.7%
CCOC(=O)C1CCN(CCC(=O)Nc2c(C(=O)OC)[nH]c3ccc(F)cc23)CC1	inconclusive: 141 µM [inhibitor, single point]	–
Cc1ccc(SC[C@H](Cc2ccccc2)N2CCN(CC(C)C)CCC2=O)cc1	inconclusive: 89.1 µM [inhibitor, partial curve, poor fit]	–

# Next part:

Structure (SMILES),Potency,"activity change, negative = inhibition"
Cc1ccc(-n2c(SCC(=O)Nc3ccc4c(c3)OCCO4)nnc2N2CCOCC2)cc1,"inconclusive: 35.5 µM [inhibitor, partial curve, poor fit]",–
CN(Cc1ccc(Br)cc1)C(=O)CN1CCCC1c1ccc2c(c1)OCCO2 (stereo unspecified),"inconclusive: 100 µM [inhibitor, partial curve, poor fit]",–
O=C(O)c1cc(-c2ccc(/C=C3\NC(=O)N(c4ccc(Cl)cc4)C3=O)o2)ccc1Cl,"inconclusive: 44.7 µM [inhibitor, partial curve, poor fit]",–
CC1(C)CC(NC(=O)c2cc3ccccc3cc2NC(=O)C2CC2)CC(C)(C)N1,–,inactive: 43.7%
COc1ccc(C2CCCCCN2C(=O)C2CCN(S(=O)(=O)c3ccc(C)cc3)CC2)cc1 (stereo unspecified),"inconclusive: 0.447 µM [inhibitor, full curve, poor fit]",–
CCOC(=O)CCCNC(=O)CCl,"inconclusive: 3.98 µM [inhibitor, full curve, poor fit]",–
CCN1CCN(c2ccc(S(=O)(=O)N3CCCCC3)cc2NC(=O)c2cccc(OC(F)F)c2)CC1,"inconclusive: 50.1 µM [inhibitor, partial curve, poor fit]",–
Cc1ccc(C(=O)c2c(C)c(CCC#N)n3ccccc23)cc1,"inconclusive: 8.91 µM [inhibitor, full curve, poor fit]",–
COc1cccc(CN2C[C@@H]3C(C(=O)NCc4ccccc4)=NO[C@@H]3C2)c1,"inconclusive: 7.08 µM [inhibitor, full curve]",–
CC1CCCCC1NC(=O)c1csc2ccccc12 (stereo unspecified),"inconclusive: 50.1 µM [inhibitor, single point]",–
CCC(=O)Nc1cccc(-c2nnc(-c3cccc(NC(=O)CC)c3)o2)c1,–,inactive: 0.627%
Cc1nc2cc(NC(C)c3nc(C(C)C)no3)ccc2o1 (stereo unspecified),"inconclusive: 28.2 µM [inhibitor, single point]",–
Cc1ccc(NC(=O)c2ncn(CC(=O)NCc3ccc4[nH]ccc4c3)n2)cc1C,"inconclusive: 141 µM [inhibitor, single point]",–
CCOCCCNC(=O)c1cc2c(-c3ccc(OC)c(OC)c3)nn(C)c2s1,–,inactive: -19.2%
Cn1cc(-c2ccc(F)cc2)c2nc(CO)cn2c1=O,"inconclusive: 158 µM [inhibitor, partial curve, poor fit]",–
CN1OC[C@@H]2CN(Cc3ccccc3)[C@H](c3ccc(N4CCCCC4)cc3)C[C@@H]21,"inconclusive: 100 µM [inhibitor, single point]",–
CSc1ccc(-c2ccc3c(c2)C(=O)N2CC[C@H](NC(=O)C4CCCC4)[C@H]2C(=O)N3)cc1,"inconclusive: 31.6 µM [inhibitor, partial curve]",–
CCOc1ccc(CCNC(=O)c2cccc(S(=O)(=O)N3CCOCC3)c2)cc1OCC,–,inactive: -1.74%
OCCN(Cc1ccccc1)CC1CCCCC1,"inconclusive: 0.794 µM [inhibitor, full curve, poor fit]",–
Cc1cc(C2C(C#N)=C(N)Oc3n[nH]c(C)c32)c(C)s1 (stereo unspecified),"inconclusive: 89.1 µM [inhibitor, single point]",–

# Reference: PubChem BioAssay AID1671190 (National Center for Advancing Translational Sciences (NCATS), 2021)
